These results are taken from the supplement of paper PMC5949888.

Most values lie at the floor of the assay. Slopes are relative: functional sequences can read slightly below zero.

This series has as its system Saccharomyces cerevisiae PS128 hsf1 delta, HSF1(1-493) fusion. Description: growth estimate (transactivation domain function in HSF1 fusion, heat-shock survival) (a.u. (slope of normalised read count over time)); higher = stronger growth at 37°C, i.e. more transactivation activity. The settings on record: library: random library. As to the method:
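Random 60-nt DNA library encoding peptides of up to 20 aa, fused to the C-terminus of yeast HSF1 residues 1-493 (C-terminal TAD deleted) and expressed from the native HSF1 promoter on a CEN plasmid in hsf1-deleted S. cerevisiae PS128. Cells were selected at 37°C on -trp 5-FOA plates for 0, 2, 4, 6 and 8 days and amplicons were sequenced. Growth estimate is the slope of a robust linear fit of total-sum-normalised read counts (normalised to the first time point) over time, using at least 2 replicates. Sequences are classed functional (TAD activity) above a threshold of -0.13, set from stop-codon control sequences.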
On to EPPCVHMGRSR, for which the growth estimate was below -0.25. As for FHLARVGVCPSWGRESSL, the growth estimate was below -0.25. With VLKMLA, the growth estimate is below -0.25. On to QAKGTPLGVDWRWK, for which the growth estimate is below -0.25. As for VDVESNPYL, the growth estimate is below -0.25.

For MRQAFVYCLTSAGNSALRAH, the growth estimate was below -0.25.

With SLIRIPAVATTRGSPRLSHV, the growth estimate is below -0.25.

HVRASPGSYGV: the growth estimate is below -0.25. The value for LNRNVSHTASDGIAEYKAAV was below -0.25; that for NFKTWT was below -0.25; that for FKI was below -0.25. The value for TGVDAYPSLPSHVVRLEHCT was -0.246; that for GPLMIQWEQSRSDKGCHRPG was below -0.25; that for GGLERFQNSVCSTSSIARVM was below -0.25.

As for QPGGSLVFSSWCLGQNPAVR, the growth estimate is below -0.25. The value for REGLLDPDDARDKPPRGPVT was below -0.25; that for DYGNHRRSESQ was below -0.25; that for AGNKTGRYVGCTGGFRYERS was below -0.25. Turning to ISFGG, the growth estimate is below -0.25. The value for LHGSFSETGVIYNCGNSLSW was -0.192; that for VGVL was below -0.25; that for GGQIIC was below -0.25. With CRRPGWIFSGSVGDNRSWCL the figure was below -0.25. With VLRRGFQICTGCAPIVAGHA the figure was below -0.25; with WSTADASGPFERIVNTSTE, below -0.25. On to AIKPLSSTSPFWLRRGHQPA, for which the growth estimate was below -0.25. Take VHSKPAR: the growth estimate was below -0.25. With ECVLPGVDSSLSSSPTDMYP the figure was below -0.25; with LPRPAFYV, below -0.25; with RNPASRKAGDIEIVRSLMFR, below -0.25. For GCSALKTNPG, the growth estimate is below -0.25.

On to GMPFSTWSRICDTIPAQERQ, for which the growth estimate was below -0.25. On to YFR, for which the growth estimate is below -0.25. Turning to YTVRALEEVSAWRGFGKS, the growth estimate was below -0.25. The value for LCNVVCRKYARMLVLASRLN was below -0.25; that for LSRVSTKKLRLNVMCTDGRD was below -0.25. Take GSDVDFLSYSMGVDGLGGCG: the growth estimate was below -0.25. With AYTVGDWFCAQRRRNVRGMF the figure was below -0.25. On to LERQPYSDPDCTTR, for which the growth estimate is below -0.25. For the substance RADTSGTRWLTFEPDRVMII, the growth estimate is below -0.25. With YPPYQEGVPI the figure was below -0.25. With RAEAQ the figure was below -0.25; with DRVLHRIRFQWIQLASLPPS, below -0.25.

As to LTPWC, the growth estimate is below -0.25. Regarding LEKGAV, the growth estimate was below -0.25. In the case of KDSRCPGATAWMKTGRLKPP, the growth estimate is below -0.25.

As for QLYIRSAPGVLAKSSYLRQP, the growth estimate was below -0.25. With MVRARCQRG the figure was below -0.25. The value for CLSGSTKVVMHNGGDTGIP was -0.206; that for SRCREGA was below -0.25; that for NVGVPSTSRAGSNLADSRT was below -0.25. Consider SGGGQNQGTGRFGIASL, for which the growth estimate is below -0.25. On to AQMMLS, for which the growth estimate is below -0.25. Take NPWKILVDVIYAASRGVNFS: the growth estimate was below -0.25. With LGFGRTVSTYR the figure was below -0.25; with KVTGLHVSTEDRKHTKRYIS, below -0.25; with NSAHSKGACAQIPLVPG, below -0.25. Consider YEVCLI, for which the growth estimate is below -0.25. The value for ARCWGAVASGGMSDQLRVVC was below -0.25; that for TIRVRLRDISSLRAGGDIYG was below -0.25. The value for YGIKTYSMSFLALERQKAPP was below -0.25; that for DLVVLARLRFIPTGGQTAGS was below -0.25; that for GEGSAGAQHGSRICAGSVI was below -0.25.

Regarding VLERAVYRR, the growth estimate is below -0.25.

On to VHC, for which the growth estimate was below -0.25. With AFGHADVI the figure was below -0.25; with SRRVHDGSGYTSVIKARINS, below -0.25. The value for VLNS was below -0.25; that for RKGVDRAPTSAERRIKIELE was -0.0864; that for PRRRIALPGECHVLGGLGQG was below -0.25. The value for ETYEGHAVFHHLRIAGAKSW was below -0.25; that for IRPWSRVEIRPAGFYSLASA was below -0.25. Turning to LTASRLTLKSVNEGLTCT, the growth estimate was below -0.25.

With GPSG, the growth estimate is below -0.25. The value for LLWRCVVVGIVVTIVPLGAG was below -0.25; that for GRWRS was below -0.25.
